Test results from US20150344941.
Construct, isoform or probe ends are uncertain for at least one entry. For some of these results: Tags and fusion partners may be left off the protein sequences shown.

Legend:
[1] = tested on: Nb.BbvCI nicking endonuclease; assay: enzyme reaction in vitro; conditions: before position 1], purified recombinant protein, protein details: New England Biolabs, letters built from the parent sequence and the stated change
[2] = target: T1, Exonuclease III (Exo III) (UniProt P09030); assay: enzyme reaction in vitro; conditions: before position 1], purified recombinant protein, protein details: New England Biolabs, letters built from the parent sequence and the stated change
T1 sequence (looked up, limits assumed): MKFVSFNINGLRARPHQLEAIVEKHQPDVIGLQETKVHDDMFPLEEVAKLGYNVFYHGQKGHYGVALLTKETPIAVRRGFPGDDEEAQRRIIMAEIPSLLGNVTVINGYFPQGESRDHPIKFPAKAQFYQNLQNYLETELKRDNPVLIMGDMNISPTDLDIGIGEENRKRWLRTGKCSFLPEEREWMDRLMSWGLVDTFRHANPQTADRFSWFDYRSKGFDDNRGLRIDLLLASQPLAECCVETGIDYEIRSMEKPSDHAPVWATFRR

Sequence: AACGAAGCTGAGGATGTGTTCGTT / ATCCTCAGCTTCG [hairpin (6) opened by biomarker DNA (7)]
- activity on this sequence ([1]; 5' SH(CH2)6 on hairpin strand, immobilised on mesoporous SiO2 [strand 1 5' end: SH(CH2)6 linker (printed N, left out), nicking read as rhodamine B release, NEBuffer 2, 60 min): active

Sequence: CAAGGGCAGAAGTCTTCACTGCCCTTGCACACT / AGTGTGCAAGGGCAGTGAAGACTTGATTGT [hairpin (1) opened by biomarker DNA (2)]
- activity on this sequence ([2]; 5' SH(CH2)6 on hairpin strand, immobilised on mesoporous SiO2 [strand 1 5' end: SH(CH2)6 linker (printed N, left out), 3'-end digestion read as rhodamine B release, NEBuffer 1, 60 min): active

Sequence: CCTCCGCAATACTCCGCTGAGGCCTGGGGGAGTATTGCGGAGGAAGGCCTCAGC [ATP-aptamer hairpin (12)]
- activity on this sequence ([1]; 5' SH(CH2)6, immobilised on mesoporous SiO2 [5' end: SH(CH2)6 linker (printed N, left out), ATP-triggered opening of hairpin, rhodamine B release, NEBuffer 2, 90 min, folded or branched DNA): active

Sequence: CCTCCGCTACCTGGGGGAGTATTGCGGAGGAAGGTA [ATP-aptamer hairpin (11)]
- activity on this sequence ([2]; 5' SH(CH2)6, immobilised on mesoporous SiO2 [5' end: SH(CH2)6 linker (printed N, left out), ATP-triggered opening of hairpin, rhodamine B release, NEBuffer 1, 90 min, folded or branched DNA): active
